# Experimental data: the supplement of paper PMC10338343
# ± gives the standard deviation. Only a part is listed here, and it is no random draw. The uncertainty is large for many entries.
# Tested on: MILI (PIWIL2) piRISC loaded with piRNA #1 (26 nt)
# Experiment: pre-steady-state target cleavage rate (min^-1); MIWI and MILI are mouse PIWI proteins and EfPiwi is from a freshwater sponge; tags in brackets are library labels; higher = faster piRNA-guided slicing of the target
# Conditions: guide: piRNA #1 5'p-UGAGGUAGUAGGUUGUAUAGUAUCCA; auxiliary factor: 500 nM mouse GTSF1
# Summary of the method: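 Sequencing of uncleaved targets, normalised to depth and to weakly complementary targets, was the readout of this Cleave-'n-Seq assay. A transcribed, DNA-blocked target RNA library (0.1 nM) was mixed with 1 nM active affinity-purified piRISC carrying one synthetic guide, with or without 500 nM GTSF1 partner protein, in HEPES–potassium acetate buffer at 33 °C for 0–8 or 0–960 min. Three trials were pooled, k3 was capped at 0.0001 min^-1, and a burst-and-steady-state fit gave the pre-steady-state cleavage rate.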
row,Sequence,pre-steady-state target cleavage rate
1,GGAGACCUAUCUAUACAACCUACAUGGAGA [g8:g20:cont:t1A],0.00152 ± 0.0053
2,GGAGAGGAUACUAUACAACCAACUAGCUCA,0.00206 ± 0.0031
3,GGAGACCUAUGAUUACAACGAACUACCUCA,0.000528 ± 0.0069
4,GGAGACCUAUGAUAUGUUCCUCACUACCUCA,0.000115 ± 0.015
5,GGAGACCUAUCUAUACAACCUCACUACCUCA,0.00327 ± 0.0041
6,GGAGUGGAUACUAUACAACCUACAUGCUCA,0.00232 ± 0.0033
7,GGAGAGGAAACUAUACAACCUACUAGCUCA,0.0535 ± 0.019
8,GGAGAGGAUACUAUACAACCAACUACGUCA,0.00609 ± 0.0018
9,GGAGACCUAACUAUACAACCUACUACCUGCA,0.149 ± 0.034
10,GGAGACCUAUGAUAUGAACGUACAACCUCA,< 0.0001
11,GGAGACGAUACUUUACAUCCUACUACCUCA,0.257 ± 0.016
12,GGAGUGGAUAGUAUACAACCUACUACCUGA,0.0603 ± 0.014
13,GGAGACCUAUGAUAUGUUCCUAGUACGUCA,0.000197 ± 0.017
14,GGAGACCUAUGAUAUGUUGGUACACCUCA,0.000347 ± 0.014
15,GGAGACCUAUGAUAACAACCUUCUAGCUCA,0.0011 ± 0.0064
16,GGAGUGGAUACUAUACAACCUUCUACCUGA,0.00123 ± 0.0032
17,GGAGACCUUACUUUACAUCCUACUACCUCA,0.26 ± 0.022
18,GGAGACCUAUCUAUACAACUCUACUACCUCA,0.000605 ± 0.0054
19,GGAGACCUAUGAUAAGAACCUACUACCACA,0.000201 ± 0.011
20,GGAGACCUAUGAUAUGUUCCUUCAACCUCA,0.000119 ± 0.027

row,Sequence,pre-steady-state target cleavage rate
1,GGAGACCUAACUAUUCAUCCUACUACCUCA,0.322 ± 0.043
2,GGAGACCUAUGAUAUCAACCUUCUAGCUCA,0.000195 ± 0.013
3,GGAGACCUUACUUUAGAACCUACUACCUCA,0.13 ± 0.01
4,GGAGAGGAUACUAUACAACCUACUACACUCA,0.136 ± 0.019
5,GGAGACCUUACUAUACAGACCUACUACCUCA,0.000356 ± 0.018
6,GGAGACCAUACUAUACUUGGAUGAUGGAGA [g15:g23:cont:t1A],< 0.0001
7,GGAGACCUAACUUUACAACCUUCUACCUCA,0.00268 ± 0.0067
8,GGAGACCUAUGAAUACAACUCUACUACCUCA,0.000973 ± 0.0073
9,GGAGACCUAUGAUAUCAACCUAGUACCACA,0.000565 ± 0.011
10,GGAGACCUAUGAUAUGUACCGACUACCUCA,0.000252 ± 0.0088
11,GGAGACCAUUGUAUACAACCUACUACCUCA,0.0325 ± 0.0067
12,GGAGACCUAUGAUAUGUACCUACCUACCUCA,0.000263 ± 0.011
13,GGAGACCUAUGAUAACAACCUUGAACCUCA,0.000117 ± 0.024
14,GGAGACCAUACUAUACAACCUAAUACCUCA,0.117 ± 0.018
15,GGAGACCUAUGAUAUGAACCAACUACCACA,0.000142 ± 0.023
16,GGAGACCUUACUAUACAAUCCUACUACCUCA,0.000793 ± 0.0086
17,GGAGACCUAUGAUAUGAACCAACUACCUCA,0.000275 ± 0.009
18,GGAGAGGAGACUAUACAACCUACUACCUCA,0.25 ± 0.052
19,GGAGACCUAACUAUAGAACCUUCUACCUCA,0.00166 ± 0.0054
20,GGAGACCUUUCUAUUCAACCUACUACCUCA,0.0926 ± 0.012

# Laid out differently: results already given.
row | Sequence | pre-steady-state target cleavage rate
18 | GGAGACCUAUCUAUACAACUCUACUACCUCA | 0.000605 ± 0.0054
1 | GGAGACCUAACUAUUCAUCCUACUACCUCA | 0.322 ± 0.043
